{
  "sequences": {"note": "The chains behind the UniProt entries cited, without tags or fusion partners. Where a name states a change or a piece, a line headed by the entry shows the natural chain unless it says otherwise.", "UniProt P51450": "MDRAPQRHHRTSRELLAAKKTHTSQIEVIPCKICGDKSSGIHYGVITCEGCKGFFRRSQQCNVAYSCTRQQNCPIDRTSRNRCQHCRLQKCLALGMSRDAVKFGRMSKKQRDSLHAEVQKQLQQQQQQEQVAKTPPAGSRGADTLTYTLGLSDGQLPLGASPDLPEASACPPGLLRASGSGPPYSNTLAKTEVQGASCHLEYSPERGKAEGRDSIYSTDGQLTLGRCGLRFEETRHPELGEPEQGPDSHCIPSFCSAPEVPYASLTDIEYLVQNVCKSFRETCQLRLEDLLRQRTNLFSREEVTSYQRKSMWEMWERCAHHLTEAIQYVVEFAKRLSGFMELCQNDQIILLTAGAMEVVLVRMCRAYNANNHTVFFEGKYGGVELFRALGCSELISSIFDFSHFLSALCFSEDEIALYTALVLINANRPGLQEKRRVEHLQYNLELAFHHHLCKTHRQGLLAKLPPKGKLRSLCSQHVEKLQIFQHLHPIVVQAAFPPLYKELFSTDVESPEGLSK"},
  "source": "PubChem BioAssay AID2551",
  "about": "(National Center for Advancing Translational Sciences (NCATS), 2010)",
  "note": "The whole screen tested about 310,000 compounds, of which about 17,000 (5.5%) were called active. Inconclusive means that the source gave no clear call. Such entries were picked first, then a sample of the others. Calls follow the shape of the dose curve; as a rule, active = well fitted inhibition curve with a large enough effect; inconclusive = small, poorly fitted or top-dose-only effect, or effect the other way; inactive = no such curve, though single readings can be large or run the other way. Potencies beside an inconclusive call are fits to weak or partial responses and may not hold up. Potency is read from the fitted curve at half-maximal effect.",
  "data": [
    {"biological_target": "Nuclear receptor ROR-gamma (Mus musculus) (UniProt P51450)", "test": "qHTS for inhibitors of ROR gamma transcriptional activity; also: nearly all actives have a fitted effect of over 60% in size", "conditions": "Drosophila S2 Gal4-RORgamma UAS-luciferase reporter, 20 h; series mostly up to 53.6 µM", "procedure,_shortened": "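Stable Schneider cell line, Gal4 DNA-binding domain fused to ROR gamma, UAS-luciferase. Cmpd 1 hr RT → CuSO4 700 uM final → 20 hr RT → luciferase reagent 10 min → luminescence.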", "values": [
      {"smiles": "O=S(O)CO", "Potency": "inactive"},
      {"smiles": "CC1Cc2ccccc2N1S(=O)(=O)c1cnc(Cl)c(Cl)c1", "note": "(stereo unspecified)", "Potency": "inactive"},
      {"smiles": "CC(C)(C)C(=O)N1CCC[C@H]1C(O)(c1ccccc1)c1ccccc1", "Potency": "inconclusive: 22.4 µM [inhibitor, single point]"},
      {"smiles": "C/C(CC(=O)NC(C)(C)C)=N\\NC(=O)c1ccccc1N", "Potency": "inconclusive: 35.5 µM [inhibitor, single point]"},
      {"smiles": "O=C(Cn1c2[n+](c3ccc(C(F)(F)F)cc31)CCCCC2)c1ccc2c(c1)OCCO2", "Potency": "inactive"},
      {"smiles": "O=C(CN1C(=O)S/C(=C\\c2ccccc2)C1=O)Nc1cc([N+](=O)[O-])ccc1O", "Potency": "inconclusive: 15.8 µM [activator, partial curve]"},
      {"smiles": "O=C(c1ccc(Cl)cc1)C1CCCN(C(=O)/C=C/c2ccccn2)C1", "note": "(stereo unspecified)", "Potency": "inconclusive: 15.8 µM [activator, single point]"},
      {"smiles": "Cc1nc2sc(C(c3cccs3)N3CCN(C(=O)c4ccco4)CC3)c(O)n2n1", "note": "(stereo unspecified)", "Potency": "inconclusive: 0.631 µM [activator, full curve, poor fit]"},
      {"smiles": "O=C1CC2(CCN(C(=O)C(=O)c3c[nH]c4ccccc34)CC2)Oc2ccccc21", "Potency": "inconclusive: 5.62 µM [activator, single point]"},
      {"smiles": "CCOC(=O)c1c(CSc2ccc(C)cc2)oc2ccc(O)cc12", "Potency": "inactive"},
      {"smiles": "N#CC1=C(N)Oc2ccc3ccccc3c2C1c1cccnc1", "note": "(stereo unspecified)", "Potency": "inactive"},
      {"smiles": "CC(C)c1ccccc1OCC(O)CN(CC(O)COc1cccc2ccccc12)C(C)C", "note": "(stereo unspecified)", "Potency": "inconclusive: 28.2 µM [inhibitor, single point]"},
      {"smiles": "COC(=O)c1[nH]c(C)c(/C(O)=C2\\C(=O)C(=O)N(CCCN3CCOCC3)C2c2ccccn2)c1C", "note": "(stereo unspecified)", "Potency": "inactive"},
      {"smiles": "COc1ccc(C(=O)/C=C/Nc2ccc(C)cn2)cc1OC", "Potency": "inconclusive: 0.316 µM [inhibitor, full curve, poor fit]"},
      {"smiles": "Cn1ccnc1C1CCCCN1Cc1nc(-c2ccc3c(c2)OCO3)no1", "note": "(stereo unspecified)", "Potency": "inconclusive: 15.8 µM [inhibitor, partial curve, poor fit]"},
      {"smiles": "O=c1[nH]c(=O)n(Cc2ccccc2)c2nc(-c3ccco3)cc(C(F)(F)F)c12", "Potency": "inconclusive: 0.126 µM [inhibitor, full curve, poor fit]"},
      {"smiles": "CN(C)c1ncc2nc(-c3cccc(C#N)c3)c(=O)n(C)c2n1", "Potency": "inconclusive: 35.5 µM [activator, single point]"},
      {"smiles": "O=C1c2ccccc2C(Nc2ccc3c(c2)OCO3)N1Cc1ccco1", "note": "(stereo unspecified)", "Potency": "inconclusive: 5.01 µM [activator, partial curve, poor fit]"},
      {"smiles": "CCCCN1C(=O)C2Cc3c([nH]c4ccccc34)CN2C1=S", "note": "(stereo unspecified)", "Potency": "inconclusive: 11.2 µM [inhibitor, single point]"},
      {"smiles": "CCc1nnc(NC(=O)CSc2nccn2-c2cccc(C)c2C)s1", "Potency": "active: 2.82 µM"},
      {"smiles": "CCCCCCN(C(=O)CCl)c1ccccc1", "Potency": "inconclusive: 22.4 µM [inhibitor, single point]"},
      {"smiles": "CC(c1cccs1)N(Cc1ccco1)C(=S)Nc1ccc(F)c(Cl)c1", "note": "(stereo unspecified)", "Potency": "inconclusive: 14.1 µM [inhibitor, single point]"},
      {"smiles": "CC(C)Oc1cccc(C(=O)NC(=S)Nc2cccnc2)c1", "Potency": "inconclusive: 17.8 µM [inhibitor, single point]"},
      {"smiles": "O=C(Nc1nnc(C2CC2)s1)c1ccccn1", "Potency": "active: 1.12 µM"},
      {"smiles": "CCOc1cc2c(cc1OCC)C(c1ccccc1OC)OC(=O)C2", "note": "(stereo unspecified)", "Potency": "inactive"},
      {"smiles": "COc1cccc(/C=C2\\SC(=O)N(CCC(=O)NNC(=O)c3cccc(Cl)c3)C2=O)c1", "Potency": "inconclusive: 12.6 µM [inhibitor, single point]"},
      {"smiles": "CCOc1ccc(CCNS(=O)(=O)c2ccc3c(c2)oc(=O)n3C)cc1OCC", "Potency": "inactive"},
      {"smiles": "CCOC(=O)C1=C(CN2CCSCC2)NC(=O)NC1c1cccc([N+](=O)[O-])c1", "note": "(stereo unspecified)", "Potency": "inconclusive: 0.316 µM [activator, full curve, poor fit]"},
      {"smiles": "COc1cccc(OCCOCCOc2ccc(C)cc2[N+](=O)[O-])c1", "Potency": "inactive"},
      {"smiles": "Fc1ccc(/C=N/n2c(COc3ccccc3)n[nH]c2=S)cc1", "Potency": "inconclusive: 4.47 µM [inhibitor, partial curve]"},
      {"smiles": "CN(C(=O)C1CCC(=O)N(Cc2cccc(F)c2)C1)C1CCCCC1", "note": "(stereo unspecified)", "Potency": "inconclusive: 0.891 µM [activator, full curve]"},
      {"smiles": "CCCCSC1=N/C(=C/c2ccsc2)C(=O)N1c1ccccc1", "Potency": "inconclusive: 31.6 µM [inhibitor, single point]"},
      {"smiles": "O=C(CSc1nnc(COc2ccc(Cl)cc2)o1)N1CCOCC1", "Potency": "inactive"},
      {"smiles": "O=C(CSc1nc2ccsc2c(=O)n1CC1CCC(C(=O)O)CC1)NCCc1ccc(Cl)cc1", "note": "(stereo unspecified)", "Potency": "inactive"},
      {"smiles": "NC(=S)Nc1cccc2cccnc12", "Potency": "inconclusive: 0.316 µM [inhibitor, partial curve, poor fit]"},
      {"smiles": "FC(F)(F)c1cnc(Sc2nc3nccc(-c4ccc(Cl)cc4)n3n2)c(Cl)c1", "Potency": "inconclusive: 15.8 µM [inhibitor, single point]"},
      {"smiles": "Oc1cccc(/C=N/c2c(-c3ccco3)nc3ccccn23)c1", "Potency": "inconclusive: 35.5 µM [inhibitor, single point]"},
      {"smiles": "COc1cc(NC(=S)NC(C)(C)C)c(OC)cc1Cl", "Potency": "active: 5.01 µM"},
      {"smiles": "COCCCn1c(CCC(=O)O)ccc1-c1cccs1", "Potency": "inconclusive: 35.5 µM [inhibitor, single point]"},
      {"smiles": "CC(C)(C)c1ccc(S(=O)(=O)Nc2ccc3c(c2)COC3=O)cc1", "Potency": "inconclusive: 11.2 µM [activator, partial curve, poor fit]"},
      {"smiles": "CCN(CC)c1ccc(/C=N/NC(=O)c2c(Cl)cnn2C)c(O)c1", "Potency": "inactive"},
      {"smiles": "CN(C)CCCNCC(=O)Nc1ccccc1N1CCOCC1", "Potency": "inactive"},
      {"smiles": "CCOC(=O)Cc1csc(/N=C/c2c(O)n(-c3ccc(C)c(C)c3)c(=O)c3ccccc23)n1", "Potency": "inconclusive: 2.51 µM [inhibitor, single point]"},
      {"smiles": "CC(C)c1nc(=S)n(-c2ccccc2)[nH]1", "Potency": "active: 5.62 µM"},
      {"smiles": "COC(=O)/C(=C\\c1ccc([N+](=O)[O-])o1)NC(=O)c1ccccc1", "Potency": "inconclusive: 7.94 µM [inhibitor, partial curve]"},
      {"smiles": "O=C(NCCc1ccccc1)C1CCC(=O)N1C1CCCC1", "note": "(stereo unspecified)", "Potency": "inactive"}
    ]}
  ]
}
